Here are results for 2 compounds from patent US7030157B2, “Pharmaceutical compositions, kits and methods comprising combinations of estrogen agonists/antagonists, estrogens and progestins” (priority 2001, dated 2006).

The nature of this data set: Body weight gain in OVX rats. Format: in vivo, Sprague-Dawley female rats. Conditions: daily gavage 28 days, EE 0.03 mg/kg, LAS 0.1 mg/kg.

Consider `O=C(O)C(O)C(O)C(=O)O.Oc1ccc2c(c1)CC[C@H](c1ccccc1)[C@@H]2c1ccc(OCCN2CCCC2)cc1` [LAS, (−)-cis-6-phenyl-5-[4-(2-pyrrolidin-1-yl-ethoxy)-phenyl]-5,6,7,8-tetrahydro-naphthalene-2-ol, tartrate salt], for which the “body weight gain compared with rats treated with EE alone” value was “gained significantly less than those rats treated with EE alone”; the “body weight gain compared with sham and OVX controls” value was “significantly lower than sham and OVX controls”.
Consider `C#C[C@]1(O)CC[C@H]2[C@@H]3CCc4cc(O)ccc4[C@H]3CC[C@@]21C` [EE, 17α-ethanyl estradiol, reference compound], for which the “body weight gain compared with sham and OVX controls” value is “significantly lower than sham and OVX controls”.
